Publication PMC3991622, “Immobilised Histidine Tagged β 2-Adrenoceptor Oriented by a Diazonium Salt Reaction and Its Application in Exploring Drug-Protein Interaction Using Ephedrine and Pseudoephedrine as Probes” (PLoS ONE, 2014)

Experiments:
[1] = Retention on control column, exposed silica gel; conditions: 37 °C, void time 1.6 min
[2] = Retention on control column, histidine coated gel; conditions: 37 °C, void time 1.6 min

SMILES | Retention times, Exposed silica gel [1] [min] | Retention times, Histidine coated gel [2] [min]
CC(C)NCC(O)c1ccccc1Cl (centres unmarked) [clorprenaline] | 1.71 | 1.64
CC(C)(C)NCC(O)c1ccccc1Cl (centres unmarked) [tobuterol] | 1.58 | 1.67
CC(C)(C)NCC(O)c1ccc(O)c(CO)c1 (centres unmarked) [salbutamol] | 1.65 | 1.62
CN(C)C(=O)Oc1cc(OC(=O)N(C)C)cc(C(O)CNC(C)(C)C)c1 (centres unmarked) [bambuterol] | 1.56 | 1.59
